Measured values: ChEMBL document CHEMBL4316593 (Eur J Med Chem, 2019)
This continues a long series; more values of the same kind are listed elsewhere.

Key:
Type in all cases: cell-based
Details in all cases: U-87MG ATCC
[1] = Inhibition of RTK/PI3K/AKT/mTOR signaling in human U87 cells assessed as up regulation of zinc finger protein 37A gene expression at cytotoxic IC50 measured after 48 hrs relative to control
[2] = Inhibition of RTK/PI3K/AKT/mTOR signaling in human U87 cells assessed as down regulation of HNRNPDL gene expression at cytotoxic IC50 measured after 48 hrs relative to control
[3] = Inhibition of RTK/PI3K/AKT/mTOR signaling in human U87 cells assessed as up regulation of calreticulin gene expression at cytotoxic IC50 measured after 48 hrs relative to control
[4] = Inhibition of RTK/PI3K/AKT/mTOR signaling in human U87 cells assessed as up regulation of GLI1 gene expression at cytotoxic IC50 measured after 48 hrs relative to control
[5] = Inhibition of RTK/PI3K/AKT/mTOR signaling in human U87 cells assessed as up regulation of aldehyde dehydrogenase 3 family member B1 gene expression at cytotoxic IC50 measured after 48 hrs relative to control
[6] = Inhibition of RTK/PI3K/AKT/mTOR signaling in human U87 cells assessed as up regulation of low density lipoprotein receptor class A domain containing 3 gene expression at cytotoxic IC50 measured after 48 hrs relative to control
[7] = Inhibition of RTK/PI3K/AKT/mTOR signaling in human U87 cells assessed as down regulation of SCAF8 gene expression at cytotoxic IC50 measured after 48 hrs relative to control
[8] = Inhibition of RTK/PI3K/AKT/mTOR signaling in human U87 cells assessed as down regulation of PSMB6 gene expression at cytotoxic IC50 measured after 48 hrs relative to control
[9] = Inhibition of RTK/PI3K/AKT/mTOR signaling in human U87 cells assessed as down regulation of PSMC1 gene expression at cytotoxic IC50 measured after 48 hrs relative to control
[10] = Inhibition of RTK/PI3K/AKT/mTOR signaling in human U87 cells assessed as up regulation of Cbp/p300 interacting transactivator with Glu/Asp rich carboxy-terminal domain 2 gene expression at cytotoxic IC50 measured after 48 hrs relative to control
[11] = Inhibition of RTK/PI3K/AKT/mTOR signaling in human U87 cells assessed as down regulation of ZNF267 gene expression at cytotoxic IC50 measured after 48 hrs relative to control
[12] = Inhibition of RTK/PI3K/AKT/mTOR signaling in human U87 cells assessed as up regulation of KLHL29 gene expression at cytotoxic IC50 measured after 48 hrs relative to control
[13] = Inhibition of RTK/PI3K/AKT/mTOR signaling in human U87 cells assessed as up regulation of alkB homolog 5, RNA demethylase gene expression at cytotoxic IC50 measured after 48 hrs relative to control
[14] = Inhibition of RTK/PI3K/AKT/mTOR signaling in human U87 cells assessed as up regulation of tripartite motif containing 27 gene expression at cytotoxic IC50 measured after 48 hrs relative to control
[15] = Inhibition of RTK/PI3K/AKT/mTOR signaling in human U87 cells assessed as down regulation of PCF11 gene expression at cytotoxic IC50 measured after 48 hrs relative to control
[16] = Inhibition of RTK/PI3K/AKT/mTOR signaling in human U87 cells assessed as down regulation of ITPRIP gene expression at cytotoxic IC50 measured after 48 hrs relative to control
[17] = Inhibition of RTK/PI3K/AKT/mTOR signaling in human U87 cells assessed as down regulation of KIF11 gene expression at cytotoxic IC50 measured after 48 hrs relative to control
[18] = Inhibition of RTK/PI3K/AKT/mTOR signaling in human U87 cells assessed as down regulation of MID2 gene expression at cytotoxic IC50 measured after 48 hrs relative to control
[19] = Inhibition of RTK/PI3K/AKT/mTOR signaling in human U87 cells assessed as down regulation of PHF3 gene expression at cytotoxic IC50 measured after 48 hrs relative to control
[20] = Inhibition of RTK/PI3K/AKT/mTOR signaling in human U87 cells assessed as up regulation of FBN3 gene expression at cytotoxic IC50 measured after 48 hrs relative to control
[21] = Inhibition of RTK/PI3K/AKT/mTOR signaling in human U87 cells assessed as up regulation of TMEM52 gene expression at cytotoxic IC50 measured after 48 hrs relative to control
[22] = Inhibition of RTK/PI3K/AKT/mTOR signaling in human U87 cells assessed as down regulation of ACADVL gene expression at cytotoxic IC50 measured after 48 hrs relative to control
[23] = Inhibition of RTK/PI3K/AKT/mTOR signaling in human U87 cells assessed as down regulation of KDM1B gene expression at cytotoxic IC50 measured after 48 hrs relative to control
[24] = Inhibition of RTK/PI3K/AKT/mTOR signaling in human U87 cells assessed as down regulation of RGMA gene expression at cytotoxic IC50 measured after 48 hrs relative to control
[25] = Inhibition of RTK/PI3K/AKT/mTOR signaling in human U87 cells assessed as up regulation of collagen type I alpha 1 chain gene expression at cytotoxic IC50 measured after 48 hrs relative to control
[26] = Inhibition of RTK/PI3K/AKT/mTOR signaling in human U87 cells assessed as down regulation of UNC13B gene expression at cytotoxic IC50 measured after 48 hrs relative to control
[27] = Inhibition of RTK/PI3K/AKT/mTOR signaling in human U87 cells assessed as down regulation of TNPO1 gene expression at cytotoxic IC50 measured after 48 hrs relative to control
[28] = Inhibition of RTK/PI3K/AKT/mTOR signaling in human U87 cells assessed as down regulation of IP6K1 gene expression at cytotoxic IC50 measured after 48 hrs relative to control
[29] = Inhibition of RTK/PI3K/AKT/mTOR signaling in human U87 cells assessed as up regulation of mitogen-activated protein kinase 12 gene expression at cytotoxic IC50 measured after 48 hrs relative to control
[30] = Inhibition of RTK/PI3K/AKT/mTOR signaling in human U87 cells assessed as down regulation of ARRDC3 gene expression at cytotoxic IC50 measured after 48 hrs relative to control
[31] = Inhibition of RTK/PI3K/AKT/mTOR signaling in human U87 cells assessed as up regulation of RPL12 gene expression at cytotoxic IC50 measured after 48 hrs relative to control
[32] = Inhibition of RTK/PI3K/AKT/mTOR signaling in human U87 cells assessed as down regulation of NCOA3 gene expression at cytotoxic IC50 measured after 48 hrs relative to control

Compound: CC(=O)C(=NNc1ccccc1C#N)C(C)=O
- log2FC [1]: 1.07
- log2FC [2]: -0.907
- log2FC [3]: 1.14
- log2FC [4]: 2.92
- log2FC [5]: 0.946
- log2FC [6]: 1.32
- log2FC [7]: -0.574
- log2FC [8]: -0.998
- log2FC [9]: -0.758
- log2FC [10]: 0.654
- log2FC [11]: -1.9
- log2FC [12]: 0.589
- log2FC [13]: 0.76
- log2FC [14]: 0.729
- log2FC [15]: -0.627
- log2FC [16]: -1.55
- log2FC [17]: -0.828
- log2FC [18]: -1.12
- log2FC [19]: -0.592
- log2FC [20]: 2.13
- log2FC [21]: 1.92
- log2FC [22]: -0.444
- log2FC [23]: -0.525
- log2FC [24]: -1.49
- log2FC [25]: 1.19
- log2FC [26]: -0.861
- log2FC [27]: -1.12
- log2FC [28]: -0.759
- log2FC [29]: 0.664
- log2FC [30]: -1.76
- log2FC [31]: 0.337
- log2FC [32]: -0.461
